Data reported in publication PMC11277477.

How the values were obtained:
[1] = target: T1, GST-Adh recombinant protein (E. histolytica); assay: pull-down; GST-tagged bait bound to glutathione-Sepharose (200 μg) incubated with total trophozoite lysate (2 mg), 4 h, 4 °C; bound proteins detected by western blot with specific antibodies; only the target purified
T1 sequence: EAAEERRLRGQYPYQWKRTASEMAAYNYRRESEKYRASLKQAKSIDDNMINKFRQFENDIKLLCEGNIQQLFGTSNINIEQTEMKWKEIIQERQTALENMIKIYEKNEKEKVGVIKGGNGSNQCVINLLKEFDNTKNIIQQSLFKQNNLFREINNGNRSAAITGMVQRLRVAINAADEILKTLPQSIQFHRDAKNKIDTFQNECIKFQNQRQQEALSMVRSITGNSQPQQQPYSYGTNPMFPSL

[2] = target: T2, GST-Linker recombinant protein (E. histolytica); assay: as above
T2 sequence: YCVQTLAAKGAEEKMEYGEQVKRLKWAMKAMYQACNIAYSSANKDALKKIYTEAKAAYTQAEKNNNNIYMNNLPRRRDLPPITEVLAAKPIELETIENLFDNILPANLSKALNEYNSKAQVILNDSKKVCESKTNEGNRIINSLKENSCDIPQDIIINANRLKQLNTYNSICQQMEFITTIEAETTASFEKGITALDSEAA

Row | Substance | binding [1] | binding [2]
1 | EhHSP70 (EHI_061640) | binds | 
2 | EhRabB (enzyme) |  | binds

These are yes or no findings as the source states them, for the method shown. Binding seen in cells or lysates may run through a third protein. Binding can be weak; no strength is given. Sequences can lack the tags named with a protein.
